Data: US20240297323A1, “BIOBASED AQUEOUS ORGANIC-BASED ELECTROLYTE IN AQUEOUS ORGANIC REDOX FLOW BATTERY” (KEMIWATT, priority 2021, published 2024)
Values joined by “and” are separate entries in the source; they are usually repeats but may differ in a detail not shown here. Equal values may be shown once. Read-outs that look alike come from different tables or passages of the source.

Tests used:
[1] = Electrochemical properties at diluted state (cyclic voltammetry, RDE linear sweep voltammetry); type: physicochemical; settings: cell with ferricyanide/ferrocyanide redox couple in the posolyte
Procedure: Cyclic voltammetry experiments were performed at a 100 mV/s scan rate for compounds A, B and B-M3CH in a solution at pH 14 (KOH 1 M).
The electrochemical experiments were conducted on an electrochemical working station (BioLogic Science Instruments VSP) at 25° C. using a three-electrodes electrochemical cell, where a Pt wire was employed at the counter electrode (CE), an Ag/AgCl/KCl saturated electrode immerged in a 1 M KOH solution protected from the cell by a porous frit glass served as the reference electrode (RE) and a rotating disc electrode (RDE) mounted with a glassy carbon (GC, 7.069 mm^2) disk was used as the working electrode (WE), respectively. The potential was reported relative to the normal hydrogen electrode (NHE), which was converted from the Ag/AgCl reference electrode (0.230 V versus NHE). The ohmic drop between the WE and RE is determined by current interrupt experiments and leads to a value close to 0.7069 Ω·cm^2. All cyclic voltammetry experiments were conducted by alleviating most of this resistance (85%) using the potentiostat manual ohmic drop compensation. […]
Each recorded cyclic voltammetry of the reduction and the oxidation process of a compound at a given scan rate is analyzed by measuring ip,a=anodic peak current; ip,c=cathodic peak current; v=scan rate; Ep,a=anodic peak potential; Ep,c=cathodic peak potential; ΔEp=Ep,a−Ep,c; the apparent standard redox potential E^0′=[…]. […]
The oxidation (DO) and the reduction (DR) diffusion coefficients were calculated using Randles-Sevcik (RS) equation ip=0.4463.n^3/2.F^3/2.A.C.v^1/2.D^1/2.R^−1/2.T^−1/2=Cte.v^1/2.D^1/2, n=number of electrons exchanged during the redox process; F=faradaic number=96485 C·mol^−1; A=electrode active surface; C=redox active molecule concentration; R=gas constant=8.314 J·K^−1·mol^−1; T=bulk temperature=299 K. The experiments are conducted by cyclic voltammetry at various scan rates ranging from 10 mV/s up to 20 V/s. […]
Peak-to-peak separation ΔEp values were determined from the third cycle of each cyclic voltammogram and are gathered in the following table 2. […]

[2] = Cycling test in AORFB cell, negolyte with compound A
[3] = Post-cycling analyses of the negolyte (cyclic voltammetry and 1H NMR before and after cycling); type: physicochemical; settings: negolyte before the cycling test
Procedure: FIG. 3: Cyclic voltammetry (3rd cycle) of the negolyte (black line) before the cycling test and (grey line) after cycling test, recorded at a scan rate of 100 mV·s^−1.
FIG. 4: ^1H NMR spectra of the negolyte, recorded in D2O between 0 and 10 ppm, (black line) before and (grey line) after the cycling test.
A preliminary electrochemical test was performed on the negolyte before and after the cycling test (FIG. 3).
Further analyses were performed using ^1H NMR spectroscopy, see FIG. 4.
A preliminary electrochemical test was performed on the negolyte before and after thousands of cycles and a few months of cycling test (FIG. 7).
Further analyses were performed using ^1H NMR spectroscopy, see FIG. 8.
A preliminary electrochemical test was performed on the negolyte before and after the cycling test (FIG. 10) which lasted for more than 1000 cycles, or 25 days of constant cycling.
Further analyses were performed using ^1H NMR spectroscopy, see FIG. 11.

[4] = Cycling test in AORFB cell, negolyte with compound B
[5] = Cycling test in AORFB cell, negolyte with compound B-M3CH
[6] = prior art CN107171012, galvanostatic mode; cited from earlier work

For Cc1c(C(=O)O)c(O)cc2c1C(=O)c1c(O)cccc1C2=O [Compound A], the “open-circuit-voltage (ocv) at 50% SOC” value [1] was “about 1.1 V”, the energy density [2] was 3.7 Wh/L and the “nominal power density reached” value [2] was 100 mW/cm^2. The “capacity utilization at the beginning of the cycling test” value ([2]; 0.24 M compound A, pH 13.5, 25 cm^2, 100 mL/min) was 100%, the “active surface resistance (ASR)” value ([2]; 50% SOC, 80 μm membrane) was 2.0-2.3 Ω·cm^2 and the coulombic efficiencies ([2]; cycles under power static mode) was less than 99%. The energy efficiencies ([2]; even at nominal power density 100 mW/cm^2) was greater than 70%, the “max current during reduction step” value [3] was “roughly −4 mA” and the “max current during reoxidation step” value [3] was “roughly 3 mA”.

For Cc1cc(O)cc2c1C(=O)c1c(O)cccc1C2=O [Compound B, 3,8-dihydroxy-1-methylanthracene-9,10-dione], the energy density [4] was 2.1 Wh/L, the “nominal current density reached” value [4] was 120 mA/cm^2 and the “experimental capacity achieved at the beginning of the cycling test” value ([4]; 0.18 M compound B, pH 14.0, 5 cm^2, galvanostatic 40 mA/cm^2) was 78%. The “active surface resistance (ASR)” value ([4]; 50% SOC, 80 μm membrane) was 2.0-2.2 Ω·cm^2, the average coulombic efficiencies ([4]; 500 cycles, 40 mA/cm^2) was roughly 99.82% and the average energy efficiencies ([4]; 500 cycles, 40 mA/cm^2) was roughly 81.47%. The “capacity loss per cycle” value ([4]; 500 cycles, 40 mA/cm^2) was 0.025% and −0.025%, the “available capacity after air sealing problematics” value ([4]; further operation at different current densities) was “below 40%” and the “open-circuit-voltage (ocv) at 50% SOC” value [1] was “about 1.1 V”. The “max current during reduction step” value [3] was “roughly −4 mA” and the “max current during reoxidation step” value [3] was “roughly 2.8 mA”.

For Cc1cc(OCCCC(=O)O)cc2c1C(=O)c1c(O)cccc1C2=O [Compound B-M3CH, 4-((5-hydroxy-4-methyl-9,10-dioxo-9,10-dihydroanthracen-2-yl)oxy)butanoic acid], the “open-circuit-voltage (ocv) at 50% SOC” value [1] was “about 1.0 V”, the energy density [5] was 2.0 Wh/L and the “nominal current density reached” value [5] was 40 mA/cm^2. For the same compound, the “experimental capacity achieved at the beginning of the cycling test” value ([5]; 0.1 M compound B-M3CH, pH 13.0, 25 cm^2, power static mode 40 mW/cm^2) was 70%, the “active surface resistance (ASR)” value ([5]; 50% SOC, 50 μm membrane) was 2.0 Ω·cm^2 and the average coulombic efficiencies ([5]; power static mode 40 mW/cm^2) was roughly 99.41%. For the same compound, the average energy efficiencies ([5]; power static mode 40 mW/cm^2) was roughly 81.17%, the “capacity loss per cycle” value ([5]; power static mode 40 mW/cm^2) was 0.0099% and −0.0099% and the “max current during reduction step” value [3] was “roughly −2.3 mA”. The “max current during reoxidation step” value [3] was “roughly 2.0 mA”.

For O=C1c2ccccc2C(=O)c2c1cc(S(=O)(=O)[O-])c(O)c2O.[Na+] [alizarin red S], the coulombic efficiency [6] is listed as 98.3% and the energy density [6] is listed as 1.2 Wh/L.
